Results on 23 targets are retold here after the supplement of paper PMC10849652.

Sequences of proteins named here, by UniProt entry; tags and fusion partners are left off. A change or cut given only in a name is not applied to a line headed by its entry.
UniProt Q15459: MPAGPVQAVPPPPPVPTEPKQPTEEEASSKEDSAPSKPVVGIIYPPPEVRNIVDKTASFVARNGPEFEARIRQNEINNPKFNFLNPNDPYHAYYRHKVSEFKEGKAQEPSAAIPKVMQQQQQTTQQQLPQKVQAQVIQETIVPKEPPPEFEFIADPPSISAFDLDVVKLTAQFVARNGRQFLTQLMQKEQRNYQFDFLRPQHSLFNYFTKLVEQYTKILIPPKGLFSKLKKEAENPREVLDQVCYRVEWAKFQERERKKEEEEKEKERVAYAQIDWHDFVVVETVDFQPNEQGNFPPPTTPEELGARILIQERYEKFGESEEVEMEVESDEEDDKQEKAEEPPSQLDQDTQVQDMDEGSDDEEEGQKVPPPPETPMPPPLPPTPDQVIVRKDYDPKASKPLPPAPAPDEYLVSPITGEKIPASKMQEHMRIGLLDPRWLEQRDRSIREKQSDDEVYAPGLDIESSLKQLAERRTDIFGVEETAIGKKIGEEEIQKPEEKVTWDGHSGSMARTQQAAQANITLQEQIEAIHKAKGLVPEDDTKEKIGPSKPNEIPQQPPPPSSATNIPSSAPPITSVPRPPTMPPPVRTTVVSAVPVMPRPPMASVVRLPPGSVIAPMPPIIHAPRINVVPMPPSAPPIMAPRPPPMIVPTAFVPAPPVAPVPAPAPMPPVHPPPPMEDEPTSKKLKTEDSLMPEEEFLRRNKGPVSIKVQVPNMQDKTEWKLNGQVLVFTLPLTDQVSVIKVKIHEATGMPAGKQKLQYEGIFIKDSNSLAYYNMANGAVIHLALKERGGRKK
UniProt Q99574: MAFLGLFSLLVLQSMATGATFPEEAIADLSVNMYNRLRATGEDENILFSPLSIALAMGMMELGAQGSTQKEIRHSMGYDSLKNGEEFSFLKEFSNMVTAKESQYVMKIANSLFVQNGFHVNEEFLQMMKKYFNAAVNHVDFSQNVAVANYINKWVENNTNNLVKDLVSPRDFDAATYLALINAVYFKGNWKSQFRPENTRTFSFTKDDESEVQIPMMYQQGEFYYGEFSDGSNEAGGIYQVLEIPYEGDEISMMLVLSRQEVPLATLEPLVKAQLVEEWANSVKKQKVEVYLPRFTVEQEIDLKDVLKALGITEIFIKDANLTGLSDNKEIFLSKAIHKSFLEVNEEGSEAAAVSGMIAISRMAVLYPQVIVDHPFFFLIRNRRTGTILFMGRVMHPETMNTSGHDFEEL
UniProt Q15427: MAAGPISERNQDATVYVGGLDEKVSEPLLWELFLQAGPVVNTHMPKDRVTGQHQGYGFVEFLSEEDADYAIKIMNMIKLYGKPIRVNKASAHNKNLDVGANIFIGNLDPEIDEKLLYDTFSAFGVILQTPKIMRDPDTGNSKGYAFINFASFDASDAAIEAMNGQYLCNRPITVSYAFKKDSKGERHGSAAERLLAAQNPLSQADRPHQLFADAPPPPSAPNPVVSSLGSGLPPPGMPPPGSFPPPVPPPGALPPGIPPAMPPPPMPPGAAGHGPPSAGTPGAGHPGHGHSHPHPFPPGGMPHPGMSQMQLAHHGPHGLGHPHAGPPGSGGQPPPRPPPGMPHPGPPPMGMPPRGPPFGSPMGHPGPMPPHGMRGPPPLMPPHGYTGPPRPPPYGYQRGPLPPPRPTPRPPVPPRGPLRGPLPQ
UniProt Q9GZR1: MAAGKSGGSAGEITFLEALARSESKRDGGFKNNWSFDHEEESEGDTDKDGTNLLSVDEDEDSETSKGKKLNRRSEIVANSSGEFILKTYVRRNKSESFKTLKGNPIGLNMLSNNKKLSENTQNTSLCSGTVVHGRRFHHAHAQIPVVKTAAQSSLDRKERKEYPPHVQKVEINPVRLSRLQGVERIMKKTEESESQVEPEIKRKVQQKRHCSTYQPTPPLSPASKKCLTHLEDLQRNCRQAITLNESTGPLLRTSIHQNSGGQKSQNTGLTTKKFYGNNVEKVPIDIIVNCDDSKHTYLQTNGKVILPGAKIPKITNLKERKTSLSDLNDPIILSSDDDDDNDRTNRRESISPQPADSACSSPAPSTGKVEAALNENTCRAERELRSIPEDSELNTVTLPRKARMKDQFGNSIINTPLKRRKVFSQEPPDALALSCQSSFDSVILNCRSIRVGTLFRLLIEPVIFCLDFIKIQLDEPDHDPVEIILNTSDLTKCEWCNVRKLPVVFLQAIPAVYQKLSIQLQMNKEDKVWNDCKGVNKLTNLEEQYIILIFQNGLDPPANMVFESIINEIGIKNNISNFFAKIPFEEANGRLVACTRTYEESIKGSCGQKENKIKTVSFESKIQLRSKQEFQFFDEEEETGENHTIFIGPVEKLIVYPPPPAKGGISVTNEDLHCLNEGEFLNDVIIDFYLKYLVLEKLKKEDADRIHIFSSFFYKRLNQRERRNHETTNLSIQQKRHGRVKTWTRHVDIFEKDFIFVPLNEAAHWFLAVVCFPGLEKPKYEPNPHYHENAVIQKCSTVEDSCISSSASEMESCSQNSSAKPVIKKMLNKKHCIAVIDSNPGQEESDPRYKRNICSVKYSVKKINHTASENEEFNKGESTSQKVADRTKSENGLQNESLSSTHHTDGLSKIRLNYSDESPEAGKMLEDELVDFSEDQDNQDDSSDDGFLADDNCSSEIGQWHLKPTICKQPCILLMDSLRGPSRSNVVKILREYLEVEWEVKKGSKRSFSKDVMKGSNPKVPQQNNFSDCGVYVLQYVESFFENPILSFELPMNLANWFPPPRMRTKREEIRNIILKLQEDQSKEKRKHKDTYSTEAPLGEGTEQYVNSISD
UniProt Q8N6T7, whole entry, looked up: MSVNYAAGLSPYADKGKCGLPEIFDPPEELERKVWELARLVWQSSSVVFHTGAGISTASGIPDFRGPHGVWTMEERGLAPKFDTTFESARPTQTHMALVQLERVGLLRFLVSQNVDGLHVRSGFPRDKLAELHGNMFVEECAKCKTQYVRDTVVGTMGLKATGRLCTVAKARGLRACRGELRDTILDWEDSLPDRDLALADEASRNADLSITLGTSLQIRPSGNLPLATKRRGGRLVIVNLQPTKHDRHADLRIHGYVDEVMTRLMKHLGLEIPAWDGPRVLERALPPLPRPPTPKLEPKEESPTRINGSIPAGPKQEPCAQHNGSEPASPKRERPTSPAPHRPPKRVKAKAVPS
UniProt P50452: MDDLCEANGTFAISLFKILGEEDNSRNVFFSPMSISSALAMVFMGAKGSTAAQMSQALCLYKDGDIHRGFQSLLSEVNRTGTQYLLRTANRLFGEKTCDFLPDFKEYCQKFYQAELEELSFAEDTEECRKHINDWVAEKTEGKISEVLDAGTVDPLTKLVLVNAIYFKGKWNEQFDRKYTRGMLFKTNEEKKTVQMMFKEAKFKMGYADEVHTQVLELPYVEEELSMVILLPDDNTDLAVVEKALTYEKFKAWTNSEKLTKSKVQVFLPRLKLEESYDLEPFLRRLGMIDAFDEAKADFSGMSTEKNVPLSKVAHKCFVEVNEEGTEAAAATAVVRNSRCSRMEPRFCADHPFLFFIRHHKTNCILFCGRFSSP
UniProt Q9UHD8: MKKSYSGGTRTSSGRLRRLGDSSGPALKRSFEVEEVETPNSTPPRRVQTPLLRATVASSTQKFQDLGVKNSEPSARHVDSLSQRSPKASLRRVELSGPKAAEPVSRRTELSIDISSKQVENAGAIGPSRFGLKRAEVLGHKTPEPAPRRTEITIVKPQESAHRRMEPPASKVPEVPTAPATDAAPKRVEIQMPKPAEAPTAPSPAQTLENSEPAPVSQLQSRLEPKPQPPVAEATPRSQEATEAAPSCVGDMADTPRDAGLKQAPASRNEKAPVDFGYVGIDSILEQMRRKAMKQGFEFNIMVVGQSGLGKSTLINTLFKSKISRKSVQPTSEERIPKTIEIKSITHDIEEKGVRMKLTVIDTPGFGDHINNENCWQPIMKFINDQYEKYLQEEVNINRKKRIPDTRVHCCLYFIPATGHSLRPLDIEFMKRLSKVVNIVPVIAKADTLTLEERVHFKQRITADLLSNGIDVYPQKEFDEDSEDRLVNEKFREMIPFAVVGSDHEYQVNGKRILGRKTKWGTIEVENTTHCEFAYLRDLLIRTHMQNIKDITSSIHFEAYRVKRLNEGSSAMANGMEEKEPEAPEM
UniProt Q99719: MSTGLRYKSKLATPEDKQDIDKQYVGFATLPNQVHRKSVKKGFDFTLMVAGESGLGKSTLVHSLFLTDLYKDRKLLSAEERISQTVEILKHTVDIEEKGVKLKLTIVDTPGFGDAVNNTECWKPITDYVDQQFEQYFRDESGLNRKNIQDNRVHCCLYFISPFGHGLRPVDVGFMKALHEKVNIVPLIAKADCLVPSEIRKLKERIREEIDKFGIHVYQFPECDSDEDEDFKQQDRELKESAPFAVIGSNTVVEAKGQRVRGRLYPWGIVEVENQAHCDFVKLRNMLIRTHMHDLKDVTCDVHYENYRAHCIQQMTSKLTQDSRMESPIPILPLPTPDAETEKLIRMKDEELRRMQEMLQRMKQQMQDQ
UniProt Q8NBJ9: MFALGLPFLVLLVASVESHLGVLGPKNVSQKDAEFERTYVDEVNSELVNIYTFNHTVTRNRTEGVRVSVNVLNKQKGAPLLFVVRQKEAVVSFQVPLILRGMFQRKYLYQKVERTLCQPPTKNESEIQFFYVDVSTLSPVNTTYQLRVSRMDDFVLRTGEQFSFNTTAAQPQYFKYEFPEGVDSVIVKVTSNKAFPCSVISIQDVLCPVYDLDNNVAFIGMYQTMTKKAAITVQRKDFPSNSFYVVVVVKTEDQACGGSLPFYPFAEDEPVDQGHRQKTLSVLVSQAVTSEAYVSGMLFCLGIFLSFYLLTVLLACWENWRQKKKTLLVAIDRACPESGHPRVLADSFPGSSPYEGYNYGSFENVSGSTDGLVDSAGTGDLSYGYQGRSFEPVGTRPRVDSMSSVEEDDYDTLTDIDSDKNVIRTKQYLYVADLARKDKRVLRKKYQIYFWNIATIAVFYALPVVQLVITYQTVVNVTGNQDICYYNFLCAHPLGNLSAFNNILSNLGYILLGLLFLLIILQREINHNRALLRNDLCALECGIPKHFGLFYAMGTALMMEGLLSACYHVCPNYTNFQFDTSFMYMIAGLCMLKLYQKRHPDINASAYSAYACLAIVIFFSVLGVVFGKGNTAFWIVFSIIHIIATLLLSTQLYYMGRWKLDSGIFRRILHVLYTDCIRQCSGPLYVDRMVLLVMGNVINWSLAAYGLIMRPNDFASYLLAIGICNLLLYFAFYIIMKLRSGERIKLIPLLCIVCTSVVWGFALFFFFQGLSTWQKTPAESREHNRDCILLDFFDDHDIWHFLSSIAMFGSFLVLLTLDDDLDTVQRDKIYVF
UniProt Q7L8J4: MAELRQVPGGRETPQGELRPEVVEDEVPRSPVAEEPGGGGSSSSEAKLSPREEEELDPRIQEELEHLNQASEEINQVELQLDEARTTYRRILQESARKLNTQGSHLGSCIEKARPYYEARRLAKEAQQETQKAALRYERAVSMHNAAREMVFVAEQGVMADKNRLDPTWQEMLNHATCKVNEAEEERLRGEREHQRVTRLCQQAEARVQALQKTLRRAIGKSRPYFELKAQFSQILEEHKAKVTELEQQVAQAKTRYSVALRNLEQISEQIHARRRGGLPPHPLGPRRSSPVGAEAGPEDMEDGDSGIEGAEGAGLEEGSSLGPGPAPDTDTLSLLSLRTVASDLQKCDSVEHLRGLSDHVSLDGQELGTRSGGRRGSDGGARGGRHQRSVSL
UniProt P05543: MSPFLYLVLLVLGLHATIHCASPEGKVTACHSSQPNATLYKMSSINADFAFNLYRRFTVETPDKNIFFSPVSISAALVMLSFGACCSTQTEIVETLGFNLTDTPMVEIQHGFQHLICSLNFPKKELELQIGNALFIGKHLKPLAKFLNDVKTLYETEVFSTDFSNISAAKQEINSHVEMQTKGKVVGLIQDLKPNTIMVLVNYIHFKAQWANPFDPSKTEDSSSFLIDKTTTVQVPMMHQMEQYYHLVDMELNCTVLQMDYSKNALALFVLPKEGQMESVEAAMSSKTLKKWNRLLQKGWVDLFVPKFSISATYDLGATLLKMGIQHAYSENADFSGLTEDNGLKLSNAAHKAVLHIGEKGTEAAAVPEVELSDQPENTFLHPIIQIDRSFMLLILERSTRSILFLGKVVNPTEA
UniProt Q14141: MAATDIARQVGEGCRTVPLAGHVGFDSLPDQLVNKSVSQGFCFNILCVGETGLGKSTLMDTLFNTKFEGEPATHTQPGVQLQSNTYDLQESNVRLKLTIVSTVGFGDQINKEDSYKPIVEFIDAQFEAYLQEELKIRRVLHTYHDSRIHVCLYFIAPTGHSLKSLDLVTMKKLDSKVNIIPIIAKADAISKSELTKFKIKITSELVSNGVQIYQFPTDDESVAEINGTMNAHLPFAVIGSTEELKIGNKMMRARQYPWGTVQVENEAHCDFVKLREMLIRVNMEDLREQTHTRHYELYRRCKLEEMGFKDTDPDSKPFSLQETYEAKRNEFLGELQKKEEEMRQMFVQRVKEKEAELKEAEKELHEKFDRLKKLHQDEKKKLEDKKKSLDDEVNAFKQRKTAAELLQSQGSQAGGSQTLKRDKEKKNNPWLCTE

This is one part of the list.

Compound in the test: C1=CC(=C(C=C1Cl)C2=NC3=NC=CN=C3C(=N2)NC4=CC=NC=C4)F
Put plainly: log2 fold change, soluble protein after heating vs DMSO (PISA); higher = thermal stabilisation; K562 cells, 10 uM, 30 min; active = over 0.2 and 3.5 SD of the protein, either way, in both replicates (recomputed). In a few lines: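 For each measurement, 10 μM compound was applied for 30 min to K562 cells at 2×10^6 cells/mL. Aliquots were heated for 3 min across 48°C-58°C, pooled, and extracted in PBS with 0.5% NP-40 at 4°C; the supernatant after 21,000xg for 90 min was soluble protein. This was quantified by TMTpro 16plex LC-MS/MS with channel sums equalised, and thermal stability was reported relative to control samples from duplicates, on a log2 fold-change scale.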
In the case of SF3A1 (UniProt Q15459), the log2 fold change is inactive: -0.034.

In the case of SERPINI1 (UniProt Q99574), the log2 fold change is inactive: 0.042.

For SGTA (UniProt O43765), the log2 fold change was inactive: 0.068.

Turning to SF3B4 (UniProt Q15427), the log2 fold change is inactive: 0.02.

Turning to SF3B1 (UniProt O75533), the log2 fold change was inactive: -0.06.

For the target SFSWAP isoform 2 (UniProt Q12872), the log2 fold change was inactive: -0.078.

On to SENP6 (UniProt Q9GZR1), for which the log2 fold change was active: 0.237.

On to SEMA4C (UniProt Q9C0C4), for which the log2 fold change is inactive: 0.014.

For the target SIRT6 (UniProt Q8N6T7), the log2 fold change was inactive: -0.148.

For the target SERGEF (UniProt Q9UGK8), the log2 fold change is inactive: -0.025.

With SERPINB8 (UniProt P50452), the log2 fold change was inactive: -0.035.

On to SF3A2 (UniProt Q15428), for which the log2 fold change was inactive: -0.055.

Consider SHMT1 (UniProt P34896), for which the log2 fold change is inactive: 0.074.

As for SEPTIN9 (UniProt Q9UHD8), the log2 fold change is inactive: 0.069.

With SEPTIN5 (UniProt Q99719), the log2 fold change is inactive: 0.021.

Take SIDT2 isoform 2 (UniProt Q8NBJ9): the log2 fold change is inactive: -0.027.

On to SH3BP5L (UniProt Q7L8J4), for which the log2 fold change is inactive: 0.049.

As to SERPINH1 (UniProt P50454), the log2 fold change was inactive: 0.008.

As for SF3B6 (UniProt Q9Y3B4), the log2 fold change was inactive: -0.256.

Turning to SEL1L (UniProt Q9UBV2), the log2 fold change is inactive: -0.044.

Consider SFXN4 (UniProt Q6P4A7), for which the log2 fold change was inactive: 0.015.

Turning to SERPINA7 (UniProt P05543), the log2 fold change was inactive: -0.024.

Consider SEPTIN6 (UniProt Q14141), for which the log2 fold change was inactive: 0.014.
